Drawing on PubChem BioAssay AID445 (National Center for Advancing Translational Sciences (NCATS), 2006), this text covers AC50 for 62 compounds.

The nature of the test: IkB Signaling. Conditions: ABC-DLBCL IkBa-CBG/CBR dual luciferase ratio (green luciferase fused to IkBa over red control in OCI-Ly3 lymphoma cells), 4 h. The gist of the method: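 Luminescence ratio of IκBα-fused green versus native red beetle luciferase in OCI-Ly3 cells, 4 h post-doxycycline with compound; red signal alone, scaled from basal (0%) to zero light (-100%), flagged nonspecific or cytotoxic effects.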
The mark [1] stands for this setting: measured here: control luc red channel unless noted.
Where [2] appears, read: measured here: IkB-luc green channel.
The mark [3] stands for this setting: measured here: control luc red channel.

The other results are listed elsewhere or left out. The main result of the screen is listed elsewhere. These columns were measured beside it and carry no call. The list favours compounds with an active or inconclusive main result. Potencies come from curve fits of mixed quality, noted in brackets.

As usually defined, the AC50 is the concentration at which the activity in the assay is half-maximal. `O=C(Cn1nc(-c2ccc(Cl)cc2)ccc1=O)NCCc1ccccc1`: the AC50 under setting [1] was 25.1 µM [falling, partial curve]. Same read-out and setting: the same measure for `CCOC(=O)c1c(-c2ccccc2)nnn1-c1nc(OCC)nc(N2CCCCC2)n1`: 12.6 µM [falling, partial curve]; for `CCCc1[nH]nc2c1C(c1ccc(Br)s1)C(C#N)=C(N)O2` (centres undefined): 15.8 µM [falling, partial curve]. Still for that read-out and setting: the same measure for `Cc1ccc(-c2cc(C(=O)OCC(=O)Nc3cc(C)on3)c3ccccc3n2)c(C)c1`: 25.1 µM [falling, partial curve, poor fit]. Turning to `NC(=O)C1CCN(c2nc(C3CC3)nc3c2nnn3Cc2ccccc2)CC1`, under setting [1], the AC50 is 1.58 µM [rising, partial curve]. Same read-out and setting: the figure for `O=C(COc1ccccc1)OCc1cc(=O)n2nc(-c3cccs3)sc2n1` is 0.398 µM [falling, full curve, poor fit].

Take `Cc1ccccc1NC(=O)c1ccc(N(Cc2ccccc2)S(C)(=O)=O)cc1`: under setting [1], the AC50 is 15.8 µM [falling, partial curve]. On the same count and under the same terms, the figure for `CC(C)(C)OC(=O)N1CCC(c2c(C(=O)Nc3ccc4c(c3)OCO4)cnn2-c2ccccc2)CC1` is 31.6 µM [falling, single point]; for `O=C(NCc1ccc2c(c1)CCN2C(=O)c1ccncc1)c1ccccc1F` it is 3.16 µM [rising, partial curve]. As for `COC(=O)c1ccccc1NC(=O)CCS(=O)(=O)c1nc(-c2ccc3c(c2)OCO3)cc(C(F)(F)F)n1`, the AC50 runs as follows: under setting [2], 5.01 µM [rising, single point]; under setting [3], 5.01 µM [falling, partial curve]. Turning to `CCOCCCn1c(=N)c(S(=O)(=O)c2ccc(Cl)cc2)cc2c(=O)n3cccc(C)c3nc21`, under setting [1], the AC50 is 39.8 µM [falling, single point]. Still for that read-out and setting: the figure for `COc1ccccc1CNc1ncnc2c1nnn2C` is 3.16 µM [falling, single point].

Turning to `COC(=O)c1c(-c2cccs2)csc1NC(=O)c1ccc(C(C)C)cc1`, the AC50 under setting [1] was 39.8 µM [falling, single point]. Same read-out and setting: the same measure for `Cc1ccc(NC(=O)CCS(=O)(=O)c2ccc3c(c2)oc(=O)n3C)c(Br)c1`: 39.8 µM [falling, single point]. The same measure, in the same setting: the same measure for `Cc1ccc2nc(COc3cccc(NC(=O)COc4ccc(F)cc4)c3)cc(=O)n2c1`: 0.126 µM [falling, full curve]; for `COc1ccc(NC(=O)c2cc3c(C)nn(-c4ccccc4)c3s2)c(OC)c1`: 12.6 µM [falling, partial curve]; for `COc1ccc(-c2nc(CSCC(=O)N3CCN(c4ccccc4)CC3)c(C)o2)cc1`: 12.6 µM [falling, partial curve]. Regarding `COc1ccc(N2CCN(C(=O)CSCc3ccc(C)cc3)CC2)cc1`, the AC50 under setting [1] is 3.16 µM [rising, single point]. Same read-out and setting: the figure for `CC(=O)c1cccc(NS(=O)(=O)c2cccc(S(=O)(=O)c3ccc(Br)cc3)c2)c1` is 25.1 µM [falling, partial curve]; for `Cc1sc2ncnc(Oc3ccc(-n4ccnc4)cc3)c2c1C` it is 31.6 µM [falling, partial curve]. Still for that read-out and setting: the same measure for `CCOC(=O)c1sc2cccc(F)c2c1N`: 15.8 µM [rising, partial curve]. Still for that read-out and setting: the figure for `CCOC(=O)c1ccc(NC(=O)CCc2nc3cccnc3n2Cc2cccs2)cc1` is 39.8 µM [falling, partial curve]; for `O=C(Nc1ccc(O)cc1)c1ccc(C(=O)c2ccccc2)o1` it is 2.51 µM [falling, full curve]; for `Cc1cccc(NC(=O)/C(C#N)=C/c2ccc(C)o2)c1` it is 10 µM [falling, partial curve]. Consider `Cc1ccc(S(=O)(=O)c2cn(CC(=O)Nc3ccc(Cl)cc3)c3ccc(F)cc3c2=O)cc1C`, for which the AC50 under setting [1] is 0.158 µM [falling, full curve].

On to `CCOC(=O)c1c(NC(=O)c2cc(CC)on2)sc(C(C)=O)c1C`, for which the AC50 under setting [1] is 1 µM [rising, full curve, poor fit].

In the case of `CCC(=O)Nc1cccc(-c2nc3cc(C)ccc3o2)c1`, under setting [1], the AC50 was 0.794 µM [rising, partial curve].

In the case of `Cc1ccc2c(c1)nnn2C1CCN(S(=O)(=O)c2ccc(C(=O)N3C(C)CCCC3C)cc2)CC1` (centres undefined), the AC50 under setting [1] is 12.6 µM [falling, partial curve].

On to `CSc1ccc(CCNC(=O)c2c(C)oc3ncn(C)c(=O)c23)cc1`, for which the AC50 under setting [1] is 31.6 µM [falling, single point]. Still for that read-out and setting: the figure for `Cc1cccc(Cn2c(Cc3ccccc3)nc3ccccc32)c1` is 31.6 µM [falling, single point]; for `O=C(CN1c2ccccc2S(=O)(=O)c2ccccc21)Nc1cccc(C(F)(F)F)c1` it is 31.6 µM [falling, single point]; for `COc1ccc(CCN2CCC(CNC(=O)c3cnn(-c4cccc(Cl)c4)c3C3CCN(C(=O)OC(C)(C)C)CC3)CC2)cc1` it is 39.8 µM [falling, single point]. On the same count and under the same terms, the figure for `O=C(NCc1ccc(F)cc1)c1ccc2oc(=O)n(Cc3ccccc3)c2c1` is 31.6 µM [falling, partial curve]; for `COc1ccccc1NC(=O)C(=O)NCC(c1cccnc1)N1CCc2ccccc2C1` (centres undefined) it is 12.6 µM [falling, partial curve]; for `Oc1c(C(c2cccs2)N2CCOCC2)sc2ncnn12` (centres undefined) it is 0.501 µM [rising, full curve]. With `COC(=O)c1ccc(NC(=O)CCc2c(C)nn(-c3ccc(N4CCCCC4)nn3)c2C)cc1`, the AC50 under setting [1] was 20 µM [falling, partial curve].

With `COc1ccc(-n2nc(C(=O)Nc3cc(C)ccn3)c3c4ccccc4n(C)c3c2=O)cc1Cl`, the AC50 under setting [1] was 31.6 µM [rising, partial curve]. Still for that read-out and setting: the figure for `O=c1c2oc3ccccc3c2n(Cc2cccc(F)c2)c(=O)n1Cc1ccc2c(c1)OCO2` is 6.31 µM [falling, partial curve]; for `C=Cc1ccc(Cn2c(SCC(=O)N3CCN(c4ccc(F)cc4)CC3)nc3ccccc32)cc1` it is 39.8 µM [falling, single point]. Turning to `CCCCNc1cc(C)nc(NCc2ccccc2)n1`, the AC50 under setting [1] is 25.1 µM [falling, partial curve]. On the same count and under the same terms, the figure for `CCOC(=O)c1ccccc1NC(=O)N1CCCn2nc(C)cc21` is 39.8 µM [falling, single point]; for `Cc1cc(C)cc(N2C(=O)CSC23C(=O)N(CC(=O)NC2CCCCC2)c2ccccc23)c1` (centres undefined) it is 12.6 µM [falling, partial curve]; for `CCOC(=O)c1cnn(-c2cccc(Cl)c2)c1N` it is 3.98 µM [rising, partial curve]. On the same count and under the same terms, the same measure for `COc1ccc(C(=O)Nc2cccc(OCc3cc(=O)n4c5c(sc4n3)CCCC5)c2)cc1OC`: 2 µM [falling, full curve]. As for `COc1ccccc1NC(=O)CN1CCN(CC(=O)Nc2ccc(F)cc2)CC1`, the AC50 under setting [1] is 7.94 µM [falling, partial curve]. The same measure, in the same setting: the same measure for `CCOC(=O)c1c(C)[nH]c(C(=O)OCC(=O)N2c3ccccc3CC2C)c1C` (centres undefined): 15.8 µM [falling, partial curve]; for `COc1ccc(CCNC(=O)CCc2c(C)nc3cc(-c4ccc(Cl)cc4)nn3c2C)c(OC)c1`: 0.501 µM [falling, full curve]; for `O=C(CCc1ccccc1)N(Cc1cccnc1)c1nc2ccc(F)cc2s1`: 39.8 µM [falling, single point].

Turning to `O=C(CSc1nnnn1-c1ccccc1)CC(=O)Nc1ccc(Cl)cc1`, under setting [1], the AC50 is 0.0501 µM [falling, full curve].

As for `Cc1csc(NC(=O)CSc2nnc(-c3ccncc3)o2)n1`, the AC50 by setting is: under setting [2], 1.26 µM [rising, partial curve]; under setting [3], 15.8 µM [falling, partial curve]. `Cc1nc2ccc3nc(NC(=O)C4COc5ccccc5O4)sc3c2s1` (centres undefined): the AC50 under setting [1] was 3.16 µM [falling, full curve, poor fit]. On the same count and under the same terms, the same measure for `CCOC(=O)C1CCCN(C(=O)c2ccccc2NC(=O)c2nsc3ccccc23)C1` (centres undefined): 10 µM [falling, partial curve, poor fit]; for `Cn1c(CN2CCCCC2)nc2cc(NC(=O)c3cccs3)ccc21`: 39.8 µM [falling, single point]. On the same count and under the same terms, the same measure for `Cc1ccccc1Cn1nnc2c(=O)[nH]c(C3CCCN(C(=O)c4ccc(C(C)(C)C)cc4)C3)nc21` (centres undefined): 25.1 µM [falling, single point].

Take `CCOc1ccc(N2CC(NC(=O)Cc3cccs3)CC2=O)cc1` (centres undefined): the AC50 under setting [1] was 6.31 µM [falling, single point]. On to `Cc1ccc(C)c(CSc2cn(CC(=O)N3CCCC3)c3ccccc23)c1`, for which, under setting [1], the AC50 was 12.6 µM [falling, partial curve]. Same read-out and setting: the figure for `CCN(CC)C(=O)Cn1c(=O)n(-c2ccc(Cl)cc2)c(=O)c2c3c(sc21)CCCCC3` is 15.8 µM [falling, partial curve]; for `COc1ccc(NS(=O)(=O)c2ccc3c(c2)CC(C)N3C(=O)C2CCC2)cc1OC` (centres undefined) it is 25.1 µM [falling, single point]; for `Cc1ccc(NS(=O)(=O)c2ccc3nc(-c4ccccc4)[nH]c3c2)cc1Cl` it is 10 µM [falling, partial curve].

As for `COc1ccc(Br)cc1CNC(=O)C1CCN(c2nnc(-n3cccc3CNc3ccc(C)cc3)s2)CC1`, the AC50 under setting [1] was 5.01 µM [falling, full curve]. Still for that read-out and setting: the same measure for `CSc1nn(CC(=O)Nc2ccc(C)cc2C)c(N)c1S(=O)(=O)c1ccc(Cl)cc1`: 20 µM [falling, partial curve]; for `O=S(=O)(Nc1nc2n(n1)C(c1ccc(F)cc1)C=C(c1ccc(Cl)cc1)N2)c1ccccc1` (centres undefined): 39.8 µM [falling, single point].
